Numbering of substitutions follows the chain as printed. No constants are given. Whether binding was seen depends on the method and setting. Some results given as binding are weak or reduced against the parent protein; the word gives no strength. Each block holds one binder with its values, some of them ahead of it.
Target: T1, CD40 ligand (UniProt P29965 108-261, limits assumed)
T1 sequence (looked up): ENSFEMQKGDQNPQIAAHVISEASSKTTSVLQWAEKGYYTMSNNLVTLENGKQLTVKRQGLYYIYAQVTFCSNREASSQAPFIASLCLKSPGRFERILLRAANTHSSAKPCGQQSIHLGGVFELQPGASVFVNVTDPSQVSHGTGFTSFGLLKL
Experiment: phage display screen on CD40L

Binder: LYLGSLRALGIDPAAHDIRFVEDDWESPTLGAWGPGWEVWLN [C02_40L_0505_1073]
- binding: binds

B2: C02_40L_0705_1112 (peptide)
peptide: LWDWIPFPGTEGIYFYRDWDADSDSPDGELFGGSLVNLELTLETYDPDDAAPWAWNLPSDLFQEQYENWSEFHKILQN
- binding: binds

Binder: RWYLGNQTAADDYLLESYGEHPQFPWTTQHILK [C03_40L_0105_0953]
- binding: binds

Binder: RLMHCLWEIIDNSVDEALGGYCDHIDVILHDDGSVEVRDNGR [C02_40L_0804_1146]
- binding: binds

Binder: LGYPDLDLIVFPEYSTQGLNTAIWTYDEMLLTVDSPEIGVFYYFGEGTV [C02_40L_0204_0993]
- binding: binds

B7: C02_40L_0803_0889 (peptide)
peptide: LPKYGTDEKQDALRRYYAAYFNVEGGDSGTFTDYKWDCLWSCDNRGGRIVCLRENRYTSEYTGWCN
- binding: binds

B12: C03_40L_0205_0991 (peptide)
peptide: LGADFDGEGTNFPLFSENATRVELCLFDETGQTQTHCLDLPSYEGGIWYGYLLGADFDGEGSNSC
- binding: binds

B14: C02_40L_0605_1092 (peptide)
peptide: PGVDLGVQLLFQTVECGDGVSGVSWFDELSYVDFAIDAEKFQGPGQFQLTRVFGDYECPPVFLSGGDVPRCWVAVRGFEFFS
- binding: binds

B17: C02_40L_0803_1145 (peptide)
peptide: RGIEVGDPSSGNETGPTGKPFTTTIPSEVGATEISGSGKEIQPAQLMNDLPNSESAEQVRERTRDLVQWFNYALPDFVFVEEDSGYWGDTQDFSMPTGDDYELNTCIFSWYWCGLWSCDNRGGRIVCLRENRYTSEYTGWCN
- binding: binds

B18: C03_40L_0105_0955 (M09) (peptide)
peptide: PLFSENATRVELCLFDETGQTQTHCLDLPSYEGGIWYGYLPGIREGQTYGYRVHGPHAPEEGHRFNPN
- binding: binds

B19: C02_40L_0804_1170 (M08) (peptide)
peptide: B18 peptide with V53A
- binding: binds

Binder: LWTSSSDLDDAAPWVWHLPNDLSQDPFEDWAELHRIPQKQSVR [M06_40L_0103_0801]
- binding: binds

Binder: LMMDRITDISADGGLHGKGHVVAEFDIHPDLWFFECHFP [M06_40L_0103_0807]
- binding: binds

B22: C02_40L_0604_1085 (peptide)
peptide: LVNGEYDLSVMYWTNDILDPDQKTTFVLGHDVNMTWDMLVNGEYDLSVMYWTNDILDPDQKTTFVLGHDVNMSNSC
- binding: binds

B23: C02_40L_0304_1023 (peptide)
peptide: PELAREAAYKGANVYIRISGYSTQVNDQWIWTNRTNAWQNLMYTMSVNLAGYDGVFYYFGEGTVCNYDGNVIQQ
- binding: binds

B24: C02_40L_0604_1089 (peptide)
peptide: QTAKEIHFGFDQKPEDRFFWVSDIGWMMGPWTLIGNHTFAGTIFMYEGAPDYPNPDRFWEMIERH
- binding: binds

B28: C02_40L_0803_1116 (peptide)
peptide: LIHEAIGDQLTCVFVDTGLLRKNEADQVVTLFRDHYNIPLVHVDAGDLFLGELAGVSDPETN
- binding: binds

B29: C02_40L_0304_1021 (peptide)
peptide: PEDRFFWVSDIGWMMGPWTLIGNHTFAGTIFMYEGAPDYPNPDRFWEMIERH
- binding: binds

B30: C02_40L_0504_1056 (peptide)
peptide: LWTLQVTGPDGVETYTTNFLWMCQGYYRHSVGYTPEWPGMADFGGSIVHPQTWPADLDLK
- binding: binds

B31: C02_40L_0605_1091 (peptide)
peptide: B30 peptide
- binding: binds

Results, then the binder that gave them:

- binding: binds
B1: M09_40L_0203_1004 (peptide)
peptide: LCEYEHAARYVSEVECNWKTFAGNYSECDHCHANHQDWITDIELAESELEVNDYHWILHCTHDEDVEDEMRIHDEHEAKFYYFWPNFN

- binding: binds
Binder: RWYLGNQTAADDYLLESYGEHPQFPWTTQHIPK [M07_40L_0104_0895]

- binding: binds
Binder: ELLKHSDLFCELPDKFYDSAFLDRIHFYIPGWEVDIIRGEMFSNSN [M09_40L_0105_0920]

- binding: binds
B3: M08_40L_0105_0898 (peptide)
peptide: ELHCSCYYYTENDHNYYWDDHYNSYYVVQYNHKYYWDYHYDCYYVVEKHSNSC

- binding: binds
B4: M09_40L_0104_0790 (peptide)
peptide: ELLCSSNNRTYYFEEHCSCYYYTENDHNYYWDDHYNSYYVVQYNHKYYWDYHYDCYYVVEKQCN

- binding: binds
B5: M08_40L_0105_0907 (peptide)
peptide: ELFAFFSSRFFSVDDCCSHFLSSYDCSISDLMLERTPFTNFVALSSPNRFASNSC

- binding: binds
B6: M08_40L_0105_0897 (peptide)
peptide: ELLLQNGTSSMVIFDPLAPGMLEDPYSTYAILRSGDPVHWHDGLKAWVLTGHRDCLYVLQNPDSFSCNCWAGEPSSEAHTDTYFETNENWIMVNSFNTGNYGGCPMNQMAAIDDFTALYNDHPSNSC

- binding: binds
Binder: ELRCYYYTENDHNYYWDDHYNSYYVVQYNHKYYWDYHYDCYYVVEKHCN [M09_40L_0105_0927]

- binding: binds
B8: M09_40L_104_0791 (peptide)
peptide: ELLAYGKSTEDKQDFLLFHVNLDPHAAQTFEFEVPLWEFGLPDDASVEVEDLLNGNRFTWHGKWQWLELDPQTRPYAVWRLYAPGMPRCN

- binding: binds
B9: M09_40L_0104_0786 (peptide)
peptide: ELLPECAYTYGIDNILSEFGIKYFISEGKAIDYASPKSMYGTNTPIAAPSGVCAFGRDMDSSYQVWSDFMGYPGN

- binding: binds
B10: M09_40L_0105_0919 (peptide)
peptide: ELRWEVWCDGMEVSQFTYFQQVGGHDCRPVSGELTYGLERLAMYVLGIDHVMDMPFNDPCGPTPLTYGN

- binding: binds
B11: M08_40L_0105_0899 (peptide)
peptide: ELLIPLKWSIRYYICYRGLAAYSGCFGGEALSEEALPFEERYYPDAERYLGYYSNSC

- binding: binds
B13: M09_40L_0205_1012 (peptide)
peptide: LMFDRIVRIEAEGGKYGKGYVEAEFDIRPDLWFFDCHFIGDPVMPGCLGLDAMWQLVGFFQ

- binding: binds
Binder: ELRTPGSSHNYCWDDHYNSYYVVQYNHKYYWDYHYDCYYVVEKHCNSC [M08_40L_0105_0900]

- binding: binds
B15: M09_40L_0104_0788 (peptide)
peptide: ELHCSCYYYTENDHNYYWDDHYNSYYVVQYNHKYYWDYHYDCYYVVEKHSN

- binding: binds
Binder: PGQFQLTRVFSDYECPPVFLSGGDVPRCWVAVRGFEFFGRDFRCGEV [M06_40L_0104_0840]

- binding: binds
B16: M09_40L_0105_0933 (peptide)
peptide: ELLSLYCRNHRVECFCCHTGGDRSELPSTHYSTSSGFMQVYDFFGVPFVLEYSN

- binding: binds
B20: M08_40L_0105_0915 (peptide)
peptide: ELLLGTPQNNAQAEVNLNINIGGPRYVGNYGPDFIYLDDYGFAVSWGWDYDVIRPGNSC

- binding: binds
B21: M08_40L_0105_0913 (peptide)
peptide: ELRYYFEEHCSCYYYTENDHNCYWDDHYNSYYVVQYNHKYYWDYHYDCYYVVEKHSNSC

- binding: binds
Binder: ELPKRSMIVAMSTVITLDFILFHTTSSLLGSFDSNSC [M08_40L_0105_0901]

- binding: binds
B25: M09_40L_0105_0918 (peptide)
peptide: ELLFNHKYYWDYHYDCYYVVEKHCKYYYWNTYKEYNYWEKHKDDKCYWNYHYDCYYVVEKHCKYYYWNTYKEYNYWEKHKDSN

- binding: binds
Binder: LFIGAPNLHWPDTINSWLEEDRVLFTCDSFGCHYCNEAMYDDLC [M09_40L_0204_1008]

- binding: binds
Binder: RFFKRDLNNFCYQADTFNAYCN [M07_40L_0104_0853]

- binding: binds
B26: M09_40L_0104_0789 (peptide)
peptide: ELLLAEQAGTLKSELEAMPLGEYEHAARYVSEVECNWKTFAGNYSECDHCHANHQDWITDIELEESELEVNDYHWILHYTHDEDVEDEMRIHDEHEAKFYYFWPNFTGN

- binding: binds
B27: M09_40L_0205_1019 (peptide)
peptide: B28 peptide with N62K

- binding: binds
Binder: HKEYNYWEKHKDDKYYYWNTYKEYNYWEKHKDDKCYWNEKDTKSNSC [M06_40L_0104_0825]

- binding: binds
Binder: LSDYECPPVFLSGGDVPRCWVAVRGFEFFGRDFRCGEV [M06_40L_0104_0829]
